Test results as given in PMC7641127, “MCL1 binds and negatively regulates the transcriptional function of tumor suppressor p73” (Cell Death & Disease, 2020).
Results are given in words; binding and its absence hold for the method and conditions named. In cells and extracts the contact can be indirect. Some results given as binding are weak or reduced against the parent protein; the word gives no strength. Sequences can lack the tags named with a protein.

The chains behind the UniProt entries cited, without tags or fusion partners.
UniProt Q07820: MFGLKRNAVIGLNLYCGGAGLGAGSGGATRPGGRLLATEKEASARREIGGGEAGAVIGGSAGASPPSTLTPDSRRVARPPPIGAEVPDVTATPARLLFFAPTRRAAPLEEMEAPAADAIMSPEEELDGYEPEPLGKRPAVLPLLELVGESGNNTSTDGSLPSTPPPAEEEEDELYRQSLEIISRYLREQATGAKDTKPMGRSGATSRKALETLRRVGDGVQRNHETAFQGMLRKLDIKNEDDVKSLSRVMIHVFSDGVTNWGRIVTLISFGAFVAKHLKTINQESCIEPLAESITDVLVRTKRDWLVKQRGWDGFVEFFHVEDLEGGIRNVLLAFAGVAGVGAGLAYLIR

Target: T1, FLAG-tagged TAp73α (human) (UniProt O15350)
T1 sequence: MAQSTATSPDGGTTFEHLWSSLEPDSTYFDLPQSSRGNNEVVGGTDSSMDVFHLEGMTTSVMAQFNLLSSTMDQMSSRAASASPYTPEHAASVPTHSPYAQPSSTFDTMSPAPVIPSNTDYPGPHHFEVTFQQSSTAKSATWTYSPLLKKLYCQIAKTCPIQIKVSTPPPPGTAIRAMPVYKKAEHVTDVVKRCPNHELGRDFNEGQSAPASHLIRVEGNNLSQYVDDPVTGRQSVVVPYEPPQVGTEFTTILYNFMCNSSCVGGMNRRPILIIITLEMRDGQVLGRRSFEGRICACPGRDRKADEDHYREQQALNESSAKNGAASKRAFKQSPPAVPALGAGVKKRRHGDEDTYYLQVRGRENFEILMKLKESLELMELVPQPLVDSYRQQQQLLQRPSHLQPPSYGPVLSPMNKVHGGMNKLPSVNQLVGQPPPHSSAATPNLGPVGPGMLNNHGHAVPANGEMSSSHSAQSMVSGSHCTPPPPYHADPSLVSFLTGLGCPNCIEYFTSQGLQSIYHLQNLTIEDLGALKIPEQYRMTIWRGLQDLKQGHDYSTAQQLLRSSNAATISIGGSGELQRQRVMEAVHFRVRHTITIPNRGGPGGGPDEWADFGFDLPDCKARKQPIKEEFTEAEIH
Experiment: co-IP; HEK293T co-transfected with MCL1 and FLAG-TAp73α or FLAG control, 50 nM bortezomib for 24 h; FLAG precipitated with anti-FLAG magnetic beads; western blot

- binding: binds weakly
Substance: MCL1 (full length human, overexpressed in HEK293T) (from UniProt Q07820 1-350)
